The source of these data is the supplement of paper PMC10849652.

By UniProt entry, the sequences of proteins in these tests, tags left out. Where a name states a change or a piece, a line headed by the entry shows the natural chain unless it says otherwise.
UniProt P13995: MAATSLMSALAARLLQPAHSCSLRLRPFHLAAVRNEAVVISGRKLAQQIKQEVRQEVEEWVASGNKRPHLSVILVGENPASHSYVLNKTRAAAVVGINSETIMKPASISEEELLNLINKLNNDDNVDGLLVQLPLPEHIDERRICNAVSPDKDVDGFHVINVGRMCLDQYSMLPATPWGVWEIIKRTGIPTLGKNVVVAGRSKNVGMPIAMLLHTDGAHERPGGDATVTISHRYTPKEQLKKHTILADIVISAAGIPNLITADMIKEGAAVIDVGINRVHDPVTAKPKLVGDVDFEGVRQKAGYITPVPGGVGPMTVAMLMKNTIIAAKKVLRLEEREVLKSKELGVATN
UniProt P00846: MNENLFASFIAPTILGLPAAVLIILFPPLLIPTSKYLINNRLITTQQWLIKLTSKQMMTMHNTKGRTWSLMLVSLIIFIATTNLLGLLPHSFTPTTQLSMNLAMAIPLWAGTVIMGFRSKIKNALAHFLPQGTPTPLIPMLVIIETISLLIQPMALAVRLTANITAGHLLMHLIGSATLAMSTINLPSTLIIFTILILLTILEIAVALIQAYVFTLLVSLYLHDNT
UniProt O94832: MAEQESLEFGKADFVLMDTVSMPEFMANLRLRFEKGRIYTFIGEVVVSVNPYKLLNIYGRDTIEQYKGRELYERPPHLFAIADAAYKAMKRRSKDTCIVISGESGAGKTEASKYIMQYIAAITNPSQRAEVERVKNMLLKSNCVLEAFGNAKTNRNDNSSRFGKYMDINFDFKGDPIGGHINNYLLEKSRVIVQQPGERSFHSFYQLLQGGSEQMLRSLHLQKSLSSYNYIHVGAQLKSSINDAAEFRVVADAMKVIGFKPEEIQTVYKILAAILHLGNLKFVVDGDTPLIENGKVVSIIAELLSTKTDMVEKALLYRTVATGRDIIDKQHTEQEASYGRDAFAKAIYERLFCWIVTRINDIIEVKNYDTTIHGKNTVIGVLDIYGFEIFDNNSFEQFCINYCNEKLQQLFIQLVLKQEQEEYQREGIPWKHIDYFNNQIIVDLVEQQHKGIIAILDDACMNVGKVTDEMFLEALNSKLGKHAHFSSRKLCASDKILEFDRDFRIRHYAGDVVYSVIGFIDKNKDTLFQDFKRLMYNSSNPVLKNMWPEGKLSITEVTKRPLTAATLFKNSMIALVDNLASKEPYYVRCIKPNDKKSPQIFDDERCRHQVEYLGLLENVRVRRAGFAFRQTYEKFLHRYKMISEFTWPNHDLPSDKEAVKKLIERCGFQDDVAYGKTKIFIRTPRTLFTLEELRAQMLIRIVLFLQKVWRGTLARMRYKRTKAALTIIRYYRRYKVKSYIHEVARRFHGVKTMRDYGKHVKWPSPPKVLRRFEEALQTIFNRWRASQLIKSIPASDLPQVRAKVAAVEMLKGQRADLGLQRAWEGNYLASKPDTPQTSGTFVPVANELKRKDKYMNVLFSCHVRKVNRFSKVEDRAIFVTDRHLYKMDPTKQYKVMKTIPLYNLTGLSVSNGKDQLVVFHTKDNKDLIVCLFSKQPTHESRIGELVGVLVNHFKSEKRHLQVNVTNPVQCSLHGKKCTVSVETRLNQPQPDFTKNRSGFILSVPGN
MTHFD1, A0A384N5Y3, UniProt A0A384N5Y3, whole entry, looked up: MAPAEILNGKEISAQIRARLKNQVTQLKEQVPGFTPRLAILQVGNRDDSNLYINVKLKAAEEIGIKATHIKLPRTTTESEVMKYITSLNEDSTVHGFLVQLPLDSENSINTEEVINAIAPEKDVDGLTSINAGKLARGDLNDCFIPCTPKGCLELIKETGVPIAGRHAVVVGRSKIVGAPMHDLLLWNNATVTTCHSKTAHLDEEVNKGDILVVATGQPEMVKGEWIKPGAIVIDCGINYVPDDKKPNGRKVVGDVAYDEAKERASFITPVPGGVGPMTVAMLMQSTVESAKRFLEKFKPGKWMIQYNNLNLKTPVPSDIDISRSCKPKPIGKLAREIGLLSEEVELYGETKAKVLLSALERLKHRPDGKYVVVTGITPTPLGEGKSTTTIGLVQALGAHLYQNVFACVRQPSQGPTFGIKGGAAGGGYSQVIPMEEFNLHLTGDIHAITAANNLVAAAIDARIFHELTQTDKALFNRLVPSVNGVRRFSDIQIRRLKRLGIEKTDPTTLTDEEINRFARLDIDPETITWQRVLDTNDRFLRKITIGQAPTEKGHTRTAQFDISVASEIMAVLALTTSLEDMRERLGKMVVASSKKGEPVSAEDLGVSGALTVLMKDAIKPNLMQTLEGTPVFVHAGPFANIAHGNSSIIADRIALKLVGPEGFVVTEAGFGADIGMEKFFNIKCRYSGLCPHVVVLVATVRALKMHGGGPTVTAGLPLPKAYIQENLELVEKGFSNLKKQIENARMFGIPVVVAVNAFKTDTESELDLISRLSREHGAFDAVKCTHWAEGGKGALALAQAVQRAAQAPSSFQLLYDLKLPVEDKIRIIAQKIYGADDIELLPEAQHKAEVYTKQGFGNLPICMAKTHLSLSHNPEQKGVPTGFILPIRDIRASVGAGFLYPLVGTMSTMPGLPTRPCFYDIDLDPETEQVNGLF
UniProt P26038, whole entry, looked up: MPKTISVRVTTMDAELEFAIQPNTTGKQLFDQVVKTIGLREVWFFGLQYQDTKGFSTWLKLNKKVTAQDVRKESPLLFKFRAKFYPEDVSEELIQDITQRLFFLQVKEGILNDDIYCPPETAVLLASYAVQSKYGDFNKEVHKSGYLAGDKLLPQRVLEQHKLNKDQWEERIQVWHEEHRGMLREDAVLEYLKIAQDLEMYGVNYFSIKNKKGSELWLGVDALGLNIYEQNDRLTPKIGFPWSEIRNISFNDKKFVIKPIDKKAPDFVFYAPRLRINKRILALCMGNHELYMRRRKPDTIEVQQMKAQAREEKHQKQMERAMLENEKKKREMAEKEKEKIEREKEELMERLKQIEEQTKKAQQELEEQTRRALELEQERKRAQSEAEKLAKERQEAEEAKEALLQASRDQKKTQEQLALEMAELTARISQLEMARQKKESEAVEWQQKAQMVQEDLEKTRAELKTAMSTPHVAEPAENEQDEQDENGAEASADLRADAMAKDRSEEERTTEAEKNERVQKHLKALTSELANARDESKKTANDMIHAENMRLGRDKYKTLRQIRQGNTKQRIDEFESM
UniProt Q15800: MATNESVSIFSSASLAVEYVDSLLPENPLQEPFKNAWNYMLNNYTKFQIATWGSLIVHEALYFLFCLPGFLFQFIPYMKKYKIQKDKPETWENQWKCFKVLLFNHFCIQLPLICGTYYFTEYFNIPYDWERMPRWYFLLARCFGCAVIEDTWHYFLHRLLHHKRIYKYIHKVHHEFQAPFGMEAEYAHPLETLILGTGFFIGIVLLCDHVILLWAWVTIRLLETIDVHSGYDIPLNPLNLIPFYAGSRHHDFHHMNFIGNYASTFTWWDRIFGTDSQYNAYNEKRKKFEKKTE
UniProt Q9Y217: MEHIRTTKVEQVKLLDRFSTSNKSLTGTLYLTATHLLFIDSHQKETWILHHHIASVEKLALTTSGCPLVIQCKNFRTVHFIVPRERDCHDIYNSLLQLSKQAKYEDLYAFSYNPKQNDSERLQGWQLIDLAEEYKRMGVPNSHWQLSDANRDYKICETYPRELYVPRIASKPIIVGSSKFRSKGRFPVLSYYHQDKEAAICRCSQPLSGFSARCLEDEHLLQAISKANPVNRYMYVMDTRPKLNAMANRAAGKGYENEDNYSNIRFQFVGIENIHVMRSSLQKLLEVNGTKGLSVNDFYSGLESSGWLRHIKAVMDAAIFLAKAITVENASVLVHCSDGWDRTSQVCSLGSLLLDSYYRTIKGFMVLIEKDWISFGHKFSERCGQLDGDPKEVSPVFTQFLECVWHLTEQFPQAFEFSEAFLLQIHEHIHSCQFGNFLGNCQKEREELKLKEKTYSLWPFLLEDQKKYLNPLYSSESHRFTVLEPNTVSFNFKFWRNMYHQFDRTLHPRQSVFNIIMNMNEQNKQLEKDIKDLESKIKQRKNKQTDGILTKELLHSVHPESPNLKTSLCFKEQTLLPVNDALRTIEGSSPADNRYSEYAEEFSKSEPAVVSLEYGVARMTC
UniProt Q96DR8: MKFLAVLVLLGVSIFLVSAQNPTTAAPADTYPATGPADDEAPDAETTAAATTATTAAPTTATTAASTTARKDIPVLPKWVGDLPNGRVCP
UniProt Q9Y3D2: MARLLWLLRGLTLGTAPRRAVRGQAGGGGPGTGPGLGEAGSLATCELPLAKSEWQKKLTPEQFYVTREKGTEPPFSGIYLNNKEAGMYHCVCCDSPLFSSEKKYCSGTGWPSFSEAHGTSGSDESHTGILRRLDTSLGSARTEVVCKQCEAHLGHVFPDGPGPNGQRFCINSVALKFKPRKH
UniProt P14649: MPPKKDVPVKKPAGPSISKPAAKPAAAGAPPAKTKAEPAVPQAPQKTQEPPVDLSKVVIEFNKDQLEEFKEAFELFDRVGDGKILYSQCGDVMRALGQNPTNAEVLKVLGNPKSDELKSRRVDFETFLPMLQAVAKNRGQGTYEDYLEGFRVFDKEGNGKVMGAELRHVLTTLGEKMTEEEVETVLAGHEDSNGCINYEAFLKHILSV
UniProt P82909: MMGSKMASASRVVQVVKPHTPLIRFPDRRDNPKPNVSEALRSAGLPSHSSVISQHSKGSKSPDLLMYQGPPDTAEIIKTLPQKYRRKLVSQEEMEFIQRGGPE
UniProt O75431: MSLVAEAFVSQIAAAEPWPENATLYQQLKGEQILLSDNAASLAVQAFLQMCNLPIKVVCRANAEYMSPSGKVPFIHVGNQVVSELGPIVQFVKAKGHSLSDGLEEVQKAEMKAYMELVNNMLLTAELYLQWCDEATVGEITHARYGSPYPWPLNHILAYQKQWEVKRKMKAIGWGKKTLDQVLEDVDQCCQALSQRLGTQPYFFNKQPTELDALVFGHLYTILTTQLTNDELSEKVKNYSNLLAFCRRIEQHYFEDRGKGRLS
UniProt Q9UM54, whole entry, looked up: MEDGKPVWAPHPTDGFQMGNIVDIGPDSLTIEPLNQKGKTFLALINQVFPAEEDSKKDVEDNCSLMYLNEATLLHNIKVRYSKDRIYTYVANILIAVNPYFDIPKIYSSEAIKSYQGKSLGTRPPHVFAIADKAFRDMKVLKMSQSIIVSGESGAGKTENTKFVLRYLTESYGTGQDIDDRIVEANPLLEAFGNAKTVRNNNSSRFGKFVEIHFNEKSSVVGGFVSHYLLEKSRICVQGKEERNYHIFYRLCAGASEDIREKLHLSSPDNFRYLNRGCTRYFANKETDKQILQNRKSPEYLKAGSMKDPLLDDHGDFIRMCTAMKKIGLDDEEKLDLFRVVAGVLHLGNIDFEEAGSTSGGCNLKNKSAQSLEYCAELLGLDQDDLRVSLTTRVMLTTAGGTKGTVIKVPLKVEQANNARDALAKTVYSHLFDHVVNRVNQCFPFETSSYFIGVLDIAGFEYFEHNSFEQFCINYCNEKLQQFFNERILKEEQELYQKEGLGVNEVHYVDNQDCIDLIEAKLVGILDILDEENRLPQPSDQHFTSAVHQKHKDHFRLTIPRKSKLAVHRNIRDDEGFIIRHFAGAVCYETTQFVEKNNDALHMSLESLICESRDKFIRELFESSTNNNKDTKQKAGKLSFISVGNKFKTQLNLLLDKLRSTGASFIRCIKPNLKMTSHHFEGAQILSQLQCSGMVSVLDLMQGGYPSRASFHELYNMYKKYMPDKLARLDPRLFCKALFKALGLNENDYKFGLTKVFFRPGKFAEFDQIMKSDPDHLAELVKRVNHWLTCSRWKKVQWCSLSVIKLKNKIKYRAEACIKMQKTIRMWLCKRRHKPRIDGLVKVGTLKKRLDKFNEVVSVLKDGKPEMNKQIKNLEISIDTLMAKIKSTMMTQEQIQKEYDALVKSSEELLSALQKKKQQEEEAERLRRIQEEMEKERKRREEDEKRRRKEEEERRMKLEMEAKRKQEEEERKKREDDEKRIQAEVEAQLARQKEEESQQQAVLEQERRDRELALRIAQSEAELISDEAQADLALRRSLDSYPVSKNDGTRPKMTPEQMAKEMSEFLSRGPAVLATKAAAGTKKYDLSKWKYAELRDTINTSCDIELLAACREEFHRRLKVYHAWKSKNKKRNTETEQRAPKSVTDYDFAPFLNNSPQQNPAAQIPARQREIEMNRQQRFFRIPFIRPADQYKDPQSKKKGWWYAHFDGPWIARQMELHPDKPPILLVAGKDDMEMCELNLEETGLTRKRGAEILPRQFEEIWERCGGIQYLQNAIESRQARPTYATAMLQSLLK
UniProt Q9HD23: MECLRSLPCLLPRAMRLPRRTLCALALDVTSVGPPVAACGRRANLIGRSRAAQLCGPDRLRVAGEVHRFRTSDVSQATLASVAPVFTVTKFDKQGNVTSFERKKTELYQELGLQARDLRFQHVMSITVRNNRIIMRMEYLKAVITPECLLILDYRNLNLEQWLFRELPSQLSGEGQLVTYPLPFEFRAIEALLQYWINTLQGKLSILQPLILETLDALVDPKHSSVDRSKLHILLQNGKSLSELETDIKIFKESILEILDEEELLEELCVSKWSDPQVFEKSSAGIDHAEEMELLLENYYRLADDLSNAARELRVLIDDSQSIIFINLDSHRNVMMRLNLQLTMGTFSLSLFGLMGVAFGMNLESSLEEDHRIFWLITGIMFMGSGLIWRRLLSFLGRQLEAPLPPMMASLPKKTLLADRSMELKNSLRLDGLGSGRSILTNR

The other results are listed elsewhere or left out.

Compound in the first experiment: Nc1ccccc1NC(=O)c1ccc(CNC(=O)OCc2cccnc2)cc1 [entinostat]
Put plainly: log2 fold change, soluble protein after heating vs DMSO (PISA); higher = thermal stabilisation; K562 cells, 10 uM, 30 min; active = over 0.2 and 3.5 SD of the protein, either way, in both replicates (recomputed). The method in brief: (§1)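 Aliquots of K562 cells (2×10^6 cells/mL) treated with 10 μM compound for 30 min were heated for 3 min over 48°C-58°C. After pooling and extraction in PBS with 0.5% NP-40 at 4°C, soluble protein from a 21,000xg, 90 min spin was quantified by TMTpro 16plex LC-MS/MS with channel sums equalised. Thermal stability is expressed against control samples, from duplicates, as a log2 fold change.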
As for MTCH1 (UniProt Q9NZJ7), the log2 fold change is inactive: -0.022.

For the target MTHFD2 (UniProt P13995), the log2 fold change is inactive: 0.008.

As to MT-CYB (UniProt P00156), the log2 fold change is inactive: -0.007.

Regarding MYH11 isoform 2 (UniProt P35749), the log2 fold change was inactive: 0.015.

MT-ATP6 (UniProt P00846): the log2 fold change was inactive: -0.018.

Take MYO1D (UniProt O94832): the log2 fold change is inactive: -0.04.

As to MTHFD1, A0A384N5Y3, the log2 fold change is inactive: -0.059.

For MRRF (UniProt Q96E11), the log2 fold change was inactive: 0.024.

For the target MTMR12 (UniProt Q9C0I1), the log2 fold change was inactive: -0.022.

Turning to MSN (UniProt P26038), the log2 fold change was inactive: 0.014.

Consider MSMO1 (UniProt Q15800), for which the log2 fold change was inactive: -0.014.

With MRPS10 (UniProt P82664), the log2 fold change is inactive: -0.033.

Regarding MTMR6 (UniProt Q9Y217), the log2 fold change is inactive: 0.006.

In the case of MUCL1 (UniProt Q96DR8), the log2 fold change is inactive: 0.175.

As for MRPS2 (UniProt Q9Y399), the log2 fold change was inactive: 0.034.

Regarding MRPS15 (UniProt P82914), the log2 fold change is inactive: 0.072.

On to MRPS27 isoform 2 (UniProt Q92552), for which the log2 fold change is inactive: 0.011.

In the case of MSRB2 (UniProt Q9Y3D2), the log2 fold change was inactive: -0.014.

Take MYCBP (UniProt Q99417): the log2 fold change was inactive: 0.002.

Regarding MRPS11 (UniProt P82912), the log2 fold change is inactive: -0.055.

As to MRPS33 (UniProt Q9Y291), the log2 fold change was inactive: 0.

Regarding MRTFA (UniProt Q969V6), the log2 fold change is inactive: -0.025.

In the case of MYL6B (UniProt P14649), the log2 fold change was inactive: 0.

As for MTM1 (UniProt Q13496), the log2 fold change was inactive: -0.007.

Take MRPS36 (UniProt P82909): the log2 fold change was inactive: -0.024.

For MTRR isoform 1 (UniProt Q9UBK8), the log2 fold change is inactive: -0.004.

Regarding MRPS24 (UniProt Q96EL2), the log2 fold change was inactive: 0.001.

For MTPAP (UniProt Q9NVV4), the log2 fold change is inactive: 0.008.

For MRPL9 (UniProt Q9BYD2), the log2 fold change is inactive: 0.046.

In the case of MRPS30 (UniProt Q9NP92), the log2 fold change was inactive: -0.075.

MTMR14 (UniProt Q8NCE2): the log2 fold change was inactive: 0.024.

On to MTX2 (UniProt O75431), for which the log2 fold change is inactive: -0.03.

As to MTA1 (UniProt Q13330), the log2 fold change is inactive: 0.041.

MYADM (UniProt Q96S97): the log2 fold change is inactive: 0.09.

Turning to MTOR (UniProt P42345), the log2 fold change was inactive: 0.042.

As for MYO6 isoform 6 (UniProt Q9UM54), the log2 fold change was inactive: -0.025.

For MYH9 (UniProt P35579), the log2 fold change is inactive: -0.002.

Consider MRPS18A isoform 2 (UniProt Q9NVS2), for which the log2 fold change is inactive: 0.013.

MRS2 (UniProt Q9HD23): the log2 fold change was inactive: -0.032.

Compound in the next experiment: O=C(CCCCCCC(=O)Nc1ccccc1)NO [vorinostat]
The description is as above. The method in brief:
as §1
Regarding MTCH1 (UniProt Q9NZJ7), the log2 fold change was inactive: -0.013.

For MTHFD2 (UniProt P13995), the log2 fold change is inactive: 0.02.

As for MT-CYB (UniProt P00156), the log2 fold change was inactive: 0.075.

Regarding MYH11 isoform 2 (UniProt P35749), the log2 fold change was inactive: 0.121.

On to MT-ATP6 (UniProt P00846), for which the log2 fold change was inactive: -0.007.

As to MYO1D (UniProt O94832), the log2 fold change is inactive: 0.049.

Turning to MTHFD1, A0A384N5Y3, the log2 fold change is inactive: 0.013.

As to MRRF (UniProt Q96E11), the log2 fold change is inactive: -0.043.

Take MTMR12 (UniProt Q9C0I1): the log2 fold change was inactive: -0.016.

MSN (UniProt P26038): the log2 fold change was inactive: -0.02.

With MSMO1 (UniProt Q15800), the log2 fold change was inactive: 0.112.

On to MRPS10 (UniProt P82664), for which the log2 fold change is inactive: 0.057.

Turning to MTMR6 (UniProt Q9Y217), the log2 fold change was inactive: 0.101.

As for MUCL1 (UniProt Q96DR8), the log2 fold change is inactive: 0.661.

For the target MRPS2 (UniProt Q9Y399), the log2 fold change was inactive: 0.096.

For the target MRPS15 (UniProt P82914), the log2 fold change was inactive: 0.077.

Take MRPS27 isoform 2 (UniProt Q92552): the log2 fold change is inactive: 0.104.

On to MSRB2 (UniProt Q9Y3D2), for which the log2 fold change is inactive: -0.098.

Regarding MYCBP (UniProt Q99417), the log2 fold change was inactive: -0.053.

In the case of MRPS11 (UniProt P82912), the log2 fold change is inactive: -0.008.

On to MRPS33 (UniProt Q9Y291), for which the log2 fold change is inactive: 0.035.

Consider MRTFA (UniProt Q969V6), for which the log2 fold change is inactive: 0.056.

In the case of MYL6B (UniProt P14649), the log2 fold change was inactive: 0.005.

With MTM1 (UniProt Q13496), the log2 fold change is inactive: 0.037.

With MRPS36 (UniProt P82909), the log2 fold change was inactive: -0.034.

Regarding MTRR isoform 1 (UniProt Q9UBK8), the log2 fold change was inactive: -0.031.

As to MRPS24 (UniProt Q96EL2), the log2 fold change was inactive: 0.04.

MTPAP (UniProt Q9NVV4): the log2 fold change was inactive: 0.173.

Regarding MRPL9 (UniProt Q9BYD2), the log2 fold change was inactive: 0.008.

For the target MRPS30 (UniProt Q9NP92), the log2 fold change was inactive: -0.038.

Turning to MTMR14 (UniProt Q8NCE2), the log2 fold change was inactive: 0.093.

With MTX2 (UniProt O75431), the log2 fold change was inactive: -0.072.

With MTA1 (UniProt Q13330), the log2 fold change is inactive: 0.027.

As to MYADM (UniProt Q96S97), the log2 fold change was inactive: 0.036.

Regarding MTOR (UniProt P42345), the log2 fold change is inactive: 0.049.

On to MYO6 isoform 6 (UniProt Q9UM54), for which the log2 fold change was inactive: 0.013.

As for MYH9 (UniProt P35579), the log2 fold change was inactive: 0.065.

With MRPS18A isoform 2 (UniProt Q9NVS2), the log2 fold change is inactive: -0.026.

Take MRS2 (UniProt Q9HD23): the log2 fold change was inactive: -0.021.
